PubChem BioAssay AID1259254 | NCATS, 2017
Shown is an unselected part of about 59,000 reagents tested. About 1,550 of them (2.6%) count as active. 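G2 share is only a proxy for re-replication; each gene was hit by three separate siRNAs, and active genes were retested.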 A number with no mark means an inactive call. Not all columns of the deposit are shown. Reagent sequences are not shown. The record does not give: the amount of reagent.

Assay: 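Finding genes that stop cells copying their DNA twice in one cycle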 (primary screen)
Cells: human HCT116 colorectal cancer cells
Knock-down reagent: single siRNA against human genes
Time to read-out: 3 days
Measurement: 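Nuclei stained with Hoechst and imaged; cell-cycle phase assigned by DNA content; G2 share scaled per plate, non-targeting siRNA 0%, GMNN siRNA 100%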
Scale: G2 robust z-score and G2 cells, % of GMNN control: higher = more G2 cells, more excess DNA replication
Hit rule: 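Active siRNAs have a G2 robust z of 5 or more median absolute deviations over the median, which in these data means about 38% or higher of GMNN control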

Knock-down of TCTA [SID160717858] gave: G2 robust z-score -0.174; G2 cells, % of GMNN control 1.74. Against TCTA [SID160717859] the deposit lists G2 robust z-score 0.109; G2 cells, % of GMNN control 3.74. With knock-down of TCTA [SID160717860], the record shows G2 robust z-score 2.29; G2 cells, % of GMNN control 19.1. Silencing of GTF2IRD1P1 [SID160772483] resulted in: G2 robust z-score -0.363; G2 cells, % of GMNN control 0.414. GTF2IRD1P1 [SID160772484] gave G2 robust z-score -1.3; G2 cells, % of GMNN control -6.19. GTF2IRD1P1 [SID160772485] gave G2 robust z-score -0.363; G2 cells, % of GMNN control 0.411.

ARPC5L [SID160751046] scored G2 robust z-score 0.627; G2 cells, % of GMNN control 7.38. Against ARPC5L [SID160751047], the values are G2 robust z-score -0.645; G2 cells, % of GMNN control -1.57. Silencing of ARPC5L [SID160751048] came out at: G2 robust z-score 1.15; G2 cells, % of GMNN control 11. SMIM5 [SID160768757] gave G2 robust z-score -0.356; G2 cells, % of GMNN control 0.459. Knock-down of SMIM5 [SID160768758] came out at: G2 robust z-score -0.364; G2 cells, % of GMNN control 0.405. With knock-down of SMIM5 [SID160768759], the record shows G2 robust z-score 1.73; G2 cells, % of GMNN control 15.1.

Depletion of EXOSC3 [SID160739843] resulted in: G2 robust z-score 1.77; G2 cells, % of GMNN control 15.4. EXOSC3 [SID160739845] scored G2 robust z-score 3.15; G2 cells, % of GMNN control 25.2. For EXOSC3 [SID160739846] the deposit lists G2 robust z-score 0.0461; G2 cells, % of GMNN control 3.29. Against ZCWPW1 [SID160742846] the deposit lists G2 robust z-score 1.07; G2 cells, % of GMNN control 10.5. Against ZCWPW1 [SID160742847], the entry reads G2 robust z-score -0.469; G2 cells, % of GMNN control -0.329. Knock-down of ZCWPW1 [SID160742848] came out at: G2 robust z-score 0.0314; G2 cells, % of GMNN control 3.19.

Knock-down of LIME1 [SID160724447] resulted in: G2 robust z-score 1.39; G2 cells, % of GMNN control 12.7. After knock-down of LIME1 [SID160733568], the screen gave G2 robust z-score 0.221; G2 cells, % of GMNN control 4.52. For LIME1 [SID160733569], the entry reads G2 robust z-score -0.169; G2 cells, % of GMNN control 1.78. TACR2 [SID160717622] gave G2 robust z-score -0.733; G2 cells, % of GMNN control -2.19. TACR2 [SID160717624] gave G2 robust z-score 4.91; G2 cells, % of GMNN control 37.5. TACR2 [SID160717625] gave G2 robust z-score 2.12; G2 cells, % of GMNN control 17.8.

After knock-down of MAP3K12 [SID160719343], the screen gave G2 robust z-score -1.56; G2 cells, % of GMNN control -8.01. Against MAP3K12 [SID160719344], the entry reads G2 robust z-score -0.434; G2 cells, % of GMNN control -0.0869. Silencing of MAP3K12 [SID160719345] resulted in: G2 robust z-score -0.317; G2 cells, % of GMNN control 0.739. For ZNF107 [SID160740788], the entry reads G2 robust z-score 1.34; G2 cells, % of GMNN control 12.4. With knock-down of ZNF107 [SID160740789], the screen gave G2 robust z-score -0.0495; G2 cells, % of GMNN control 2.62. Knock-down of ZNF107 [SID160740790] resulted in: G2 robust z-score 2.48; G2 cells, % of GMNN control 20.4.

No new results follow: 3 of the entries above.
TACR2 [SID160717622] → G2 robust z-score = -0.733; G2 cells, % of GMNN control = -2.19
TACR2 [SID160717624] → G2 robust z-score = 4.91; G2 cells, % of GMNN control = 37.5
TACR2 [SID160717625] → G2 robust z-score = 2.12; G2 cells, % of GMNN control = 17.8
